Source: publication doi:10.1101/2024.06.19.599365
No constants are given. Whether binding was seen depends on the method and setting. Binding seen in cells or lysates may run through a third protein. Some binding calls cover weakened binding; strength is not graded here.

The chains behind the UniProt entries cited, without tags or fusion partners.
UniProt P38398: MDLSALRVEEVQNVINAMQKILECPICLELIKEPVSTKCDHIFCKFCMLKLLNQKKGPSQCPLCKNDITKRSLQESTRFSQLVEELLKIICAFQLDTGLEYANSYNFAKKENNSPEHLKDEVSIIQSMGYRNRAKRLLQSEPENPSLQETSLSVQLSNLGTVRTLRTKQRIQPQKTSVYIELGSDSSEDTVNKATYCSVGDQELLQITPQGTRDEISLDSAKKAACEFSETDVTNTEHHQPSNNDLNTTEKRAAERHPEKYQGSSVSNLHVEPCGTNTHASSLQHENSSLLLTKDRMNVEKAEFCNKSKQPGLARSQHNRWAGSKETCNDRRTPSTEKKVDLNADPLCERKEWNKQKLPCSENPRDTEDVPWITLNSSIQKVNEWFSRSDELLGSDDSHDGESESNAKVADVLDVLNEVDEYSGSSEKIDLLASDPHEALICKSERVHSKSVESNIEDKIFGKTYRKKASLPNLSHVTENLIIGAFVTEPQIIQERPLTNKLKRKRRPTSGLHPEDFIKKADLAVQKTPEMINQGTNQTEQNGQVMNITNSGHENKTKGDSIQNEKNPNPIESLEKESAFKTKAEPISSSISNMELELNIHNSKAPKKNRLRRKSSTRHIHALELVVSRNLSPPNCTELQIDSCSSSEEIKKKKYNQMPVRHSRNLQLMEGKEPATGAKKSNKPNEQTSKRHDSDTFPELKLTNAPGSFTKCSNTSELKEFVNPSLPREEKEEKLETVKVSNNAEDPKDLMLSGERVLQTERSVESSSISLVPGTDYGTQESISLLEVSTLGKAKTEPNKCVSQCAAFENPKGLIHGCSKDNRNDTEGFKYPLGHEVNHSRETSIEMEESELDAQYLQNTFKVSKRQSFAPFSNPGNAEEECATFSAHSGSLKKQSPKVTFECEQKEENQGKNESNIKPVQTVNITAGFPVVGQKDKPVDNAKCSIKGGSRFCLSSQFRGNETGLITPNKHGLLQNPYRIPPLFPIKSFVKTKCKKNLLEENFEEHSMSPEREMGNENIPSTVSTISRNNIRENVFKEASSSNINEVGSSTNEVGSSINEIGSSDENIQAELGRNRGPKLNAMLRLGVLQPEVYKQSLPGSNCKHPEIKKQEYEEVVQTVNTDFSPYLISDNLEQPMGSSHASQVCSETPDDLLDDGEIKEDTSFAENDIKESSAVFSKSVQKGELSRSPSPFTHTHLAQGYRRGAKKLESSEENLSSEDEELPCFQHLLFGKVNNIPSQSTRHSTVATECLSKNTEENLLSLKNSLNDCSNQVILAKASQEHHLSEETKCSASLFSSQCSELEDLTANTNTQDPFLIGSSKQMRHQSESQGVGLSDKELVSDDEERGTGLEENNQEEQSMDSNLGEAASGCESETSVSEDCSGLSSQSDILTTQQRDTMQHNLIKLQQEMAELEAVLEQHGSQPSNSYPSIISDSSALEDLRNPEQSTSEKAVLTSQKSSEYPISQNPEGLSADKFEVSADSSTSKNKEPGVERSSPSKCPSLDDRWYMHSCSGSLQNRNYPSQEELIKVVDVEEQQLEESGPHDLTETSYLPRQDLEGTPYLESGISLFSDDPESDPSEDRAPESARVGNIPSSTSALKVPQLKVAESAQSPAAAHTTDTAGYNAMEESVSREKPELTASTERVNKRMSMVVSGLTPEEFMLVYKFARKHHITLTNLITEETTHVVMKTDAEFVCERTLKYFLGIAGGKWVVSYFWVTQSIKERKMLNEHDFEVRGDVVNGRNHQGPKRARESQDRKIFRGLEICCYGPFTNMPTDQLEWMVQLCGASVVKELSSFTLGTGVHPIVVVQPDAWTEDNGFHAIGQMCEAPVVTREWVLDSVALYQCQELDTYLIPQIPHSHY
UniProt Q9UBL3: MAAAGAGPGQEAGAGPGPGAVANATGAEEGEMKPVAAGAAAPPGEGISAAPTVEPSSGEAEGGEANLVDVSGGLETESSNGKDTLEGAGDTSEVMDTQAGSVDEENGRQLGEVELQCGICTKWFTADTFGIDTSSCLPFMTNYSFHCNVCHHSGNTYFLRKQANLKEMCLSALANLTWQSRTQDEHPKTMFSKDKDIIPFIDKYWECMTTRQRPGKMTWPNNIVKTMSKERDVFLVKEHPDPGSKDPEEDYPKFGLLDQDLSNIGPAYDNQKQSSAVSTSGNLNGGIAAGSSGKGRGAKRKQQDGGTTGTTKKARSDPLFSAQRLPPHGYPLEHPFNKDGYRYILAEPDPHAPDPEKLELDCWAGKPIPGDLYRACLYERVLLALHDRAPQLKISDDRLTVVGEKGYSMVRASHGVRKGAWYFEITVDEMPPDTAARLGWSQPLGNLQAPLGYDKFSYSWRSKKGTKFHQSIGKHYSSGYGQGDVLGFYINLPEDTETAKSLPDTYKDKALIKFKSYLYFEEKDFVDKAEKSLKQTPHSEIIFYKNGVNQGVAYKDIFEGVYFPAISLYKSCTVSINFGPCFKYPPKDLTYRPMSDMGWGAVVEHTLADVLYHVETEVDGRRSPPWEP
UniProt Q15291: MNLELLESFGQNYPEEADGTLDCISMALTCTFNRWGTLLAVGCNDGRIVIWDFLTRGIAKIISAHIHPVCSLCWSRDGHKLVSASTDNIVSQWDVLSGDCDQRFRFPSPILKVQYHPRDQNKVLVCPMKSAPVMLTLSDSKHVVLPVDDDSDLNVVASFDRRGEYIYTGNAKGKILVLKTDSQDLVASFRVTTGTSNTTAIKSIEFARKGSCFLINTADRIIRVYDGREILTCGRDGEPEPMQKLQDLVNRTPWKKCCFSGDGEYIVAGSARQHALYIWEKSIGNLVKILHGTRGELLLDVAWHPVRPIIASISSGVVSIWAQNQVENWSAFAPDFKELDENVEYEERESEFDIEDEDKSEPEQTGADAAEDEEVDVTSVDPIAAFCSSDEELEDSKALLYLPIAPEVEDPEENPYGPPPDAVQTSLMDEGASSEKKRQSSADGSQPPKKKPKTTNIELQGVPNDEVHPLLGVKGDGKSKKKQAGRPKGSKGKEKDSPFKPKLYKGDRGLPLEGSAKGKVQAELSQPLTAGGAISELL
UniProt Q8N122: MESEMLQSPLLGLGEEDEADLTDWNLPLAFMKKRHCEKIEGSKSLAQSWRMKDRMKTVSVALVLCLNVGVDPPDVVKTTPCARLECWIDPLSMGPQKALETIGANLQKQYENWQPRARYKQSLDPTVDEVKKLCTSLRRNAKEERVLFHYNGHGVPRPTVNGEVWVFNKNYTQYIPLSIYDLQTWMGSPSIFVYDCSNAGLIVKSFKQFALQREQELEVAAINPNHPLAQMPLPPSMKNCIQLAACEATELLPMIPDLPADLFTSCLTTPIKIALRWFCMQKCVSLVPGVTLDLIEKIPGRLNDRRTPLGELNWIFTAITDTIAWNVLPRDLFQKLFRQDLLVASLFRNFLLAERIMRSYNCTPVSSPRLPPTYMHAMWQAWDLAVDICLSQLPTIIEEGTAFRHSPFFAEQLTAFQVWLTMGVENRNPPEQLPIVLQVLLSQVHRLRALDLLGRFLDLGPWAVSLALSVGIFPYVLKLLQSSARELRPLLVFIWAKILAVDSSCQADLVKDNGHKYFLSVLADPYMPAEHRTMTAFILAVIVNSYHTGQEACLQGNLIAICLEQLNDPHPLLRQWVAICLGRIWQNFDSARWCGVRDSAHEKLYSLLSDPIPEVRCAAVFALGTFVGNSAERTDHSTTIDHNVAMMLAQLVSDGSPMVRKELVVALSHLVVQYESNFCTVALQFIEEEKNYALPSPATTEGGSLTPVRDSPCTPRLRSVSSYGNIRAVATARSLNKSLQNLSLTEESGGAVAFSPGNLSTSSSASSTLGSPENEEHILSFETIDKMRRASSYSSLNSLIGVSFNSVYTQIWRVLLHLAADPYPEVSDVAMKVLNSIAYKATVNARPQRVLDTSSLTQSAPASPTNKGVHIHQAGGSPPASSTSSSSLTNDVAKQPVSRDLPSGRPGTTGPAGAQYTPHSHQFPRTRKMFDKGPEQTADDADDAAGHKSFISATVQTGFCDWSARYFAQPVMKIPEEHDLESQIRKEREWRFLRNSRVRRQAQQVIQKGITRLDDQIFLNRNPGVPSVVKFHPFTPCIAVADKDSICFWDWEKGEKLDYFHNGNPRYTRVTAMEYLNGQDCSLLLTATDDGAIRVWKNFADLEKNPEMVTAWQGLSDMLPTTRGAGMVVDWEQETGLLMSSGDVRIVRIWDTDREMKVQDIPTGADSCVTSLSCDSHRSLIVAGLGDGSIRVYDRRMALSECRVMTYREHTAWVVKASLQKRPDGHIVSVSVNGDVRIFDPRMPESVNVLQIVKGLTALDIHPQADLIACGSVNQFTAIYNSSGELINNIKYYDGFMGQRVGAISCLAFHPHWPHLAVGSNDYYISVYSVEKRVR

Target: BRCA1 (human (endogenous in PC3 and LNCaP)) (UniProt P38398)
Test: co-IP

binding | Substance
binds | ASH2L (from UniProt Q9UBL3 1-628)
binds | RBBP5 (from UniProt Q15291 1-538)
binds | Raptor (from UniProt Q8N122 1-1335) (other; other documents disagree on this pair)
